{
  "source": "patent US20260266848A1",
  "about": "“COMPOSITIONS AND METHODS FOR DIAGNOSING AND TREATING DYSTONIA” (Duke University, priority 2023, published 2026)",
  "format_in_all_cases": "cell-based, mouse",
  "key": {"DYT-TOR1A MEF EVs [1]": {"tested_on": "DYT-TOR1A MEF EVs", "test": "Quantitative LC-MS/MS proteomics of MEF EVs, DYT-TOR1A genotype vs WT", "settings": "Directionality of protein change in MEFs EV dataset between WT and DYT1 derived MEFs"}, "DYT-TOR1A MEF EVs [2]": {"tested_on": "DYT-TOR1A MEF EVs", "test": "Quantitative LC-MS/MS proteomics of EVs from drug-treated DYT-TOR1A MEF cultures (ritonavir, salubrinal)", "settings": "for DYT1/DYT1 + RTV: Directionality of protein change in MEFs EV dataset in DYT1 derived MEFs treated with Ritonavir; for RTV Corrective Direction: Ritonavir; for RTV Corrective Direction / Sal Corrective Direction: was treatment in MEF's in the direction of WT-like?; for Sal Corrective Direction: Salubrinal; for DYT1/DYT1 + Sal: Directionality of protein change in MEFs EV dataset in DYT1 derived MEFs treated with salubrinal"}, "WT MEF EVs": {"tested_on": "WT MEF EVs", "test": "Quantitative LC-MS/MS proteomics of EVs from ISRIB-treated WT MEF cultures", "settings": "Directionality of protein change in MEFs EV dataset in WT derived MEFs treated with ISRIB"}},
  "data": [
    {"molecule": "Psmd12 (protein, UniProt Q9D8W5 2-456, looked up) 26S proteasome non-ATPase …: ADGGSERADGRIVKMEVDYSATVDQRLPECEKLAKEGRLQEVIETLLSLEKQTRTASDMVSTSRILVAVVKMCYEAKEWDLLNENIMLLSKRRSQLKQAVAKMVQQCCTYVEEITDLPVKLRLIDTLRMVTEGKIYVEIERARLTKTLATIKEQNGDVKEAASILQELQVETYGSMEKKERVEFILEQMRLCLAVKDYIRTQIISKKINTKFFQEENTENLKLKYYNLMIQLDQHEGSYLSICKHYRAIYDTPCIQAESDKWQQALKSVVLYVILAPFDNEQSDLVHRISSDKKLEEIPKYKDLLKLFTTMELMRWSTLVEDYGVELRKGSSETPATDVFSSTEEGEKRWKDLKSRVVEHNIRIMAKYYTRITMKRMAQLLDLSVDESEAFLSNLVVNKTIFAKVDRLAGVINFQRPKDPNNLLNDWSQKLNSLMSLVNKTTHLIAKEEMIHNLQ", "values": [
      {"measurement": "DYT1/WT", "setting": "DYT-TOR1A MEF EVs [1]", "result": "DOWN"},
      {"measurement": "DYT1/DYT1 + RTV", "setting": "DYT-TOR1A MEF EVs [2]", "result": "DOWN"},
      {"measurement": "RTV Corrective Direction", "setting": "DYT-TOR1A MEF EVs [2]", "result": "Yes"},
      {"measurement": "Sal Corrective Direction", "setting": "DYT-TOR1A MEF EVs [2]", "result": "No"},
      {"measurement": "WT + ISRIB/WT", "setting": "WT MEF EVs", "result": "DOWN"}
    ]},
    {"molecule": "Mars (protein, UniProt Q68FL6 1-902, looked up) Methionine--tRNA ligase, …: MRLFVSEGSPGSLPVLAAAARARGRAELLISTVGPEECVVPFLTRPKVPVLQLDSGNYLFSASAICRYFFLLCGWEQDDLTNQWLEWEATELQPVLSAALHCLVVQGKKGEDILGPLRRVLTHIDHSLSRQNCPFLAGDTESLADIVLWGALYPLLQDPAYLPEELGALQSWFQTLSTQEPCQRAAETVLKQQGVLALRLYLQKQPQPQPPPPEGRTVSNELEEEELATLSEEDIVTAVAAWEKGLESLPPLKLQQHPVLPVPGERNVLITSALPYVNNVPHLGNIIGCVLSADVFARYCRLRQWNTLYLCGTDEYGTATETKAMEEGLTPREICDKYHAIHADIYRWFGISFDTFGRTTTPQQTKITQDIFQRLLTRGFVLRDTVEQLRCERCARFLADRFVEGVCPFCGYEEARGDQCDRCGKLINAIELKKPQCKICRSCPVVRSSQHLFLDLPKLEKRLEDWLGKTVPGSDWTPNARFIIRSWLRDGLKPRCITRDLKWGTPVPLEGFEDKVFYVWFDATIGYVSITANYTDQWEKWWKNPEQVDLYQFMAKDNVPFHGLVFPCSVLGAEDNYTLVKHIIATEYLNYEDGKFSKSRGIGVFGDMAKDTGIPADIWRFYLLYIRPEGQDSAFSWTDLLIKNNSELLNNLGNFINRAGMFVSKFFGGCVPEMALTPDDRRLVAHVSWELQHYHQLLEKVRIRDALRSILTISRHGNQYIQVNEPWKRIKGGEMDRQRAGTVTGMAVNMAALLSVMLQPYMPTVSSTIQTQLQLPPAACRILATSFICTLPAGHRIGTVSPLFQKLENDQIENLRQRFGGGQAKGSPKPAAVEAVTAAGSQHIQTLTDEVTKQGNVVRELKAQKADKNQVAAEVAKLLDLKKQLALAEGKPIETPKGKKKK", "values": [
      {"measurement": "DYT1/WT", "setting": "DYT-TOR1A MEF EVs [1]", "result": "DOWN"},
      {"measurement": "DYT1/DYT1 + RTV", "setting": "DYT-TOR1A MEF EVs [2]", "result": "DOWN"},
      {"measurement": "RTV Corrective Direction", "setting": "DYT-TOR1A MEF EVs [2]", "result": "Yes"},
      {"measurement": "Sal Corrective Direction", "setting": "DYT-TOR1A MEF EVs [2]", "result": "No"},
      {"measurement": "WT + ISRIB/WT", "setting": "WT MEF EVs", "result": "DOWN"}
    ]},
    {"molecule": "Ehd4 (protein, UniProt Q9EQP2 1-541, looked up) EH domain-containing protein 4: MFSWMGRQAGGRERSGGMDAVQTVTGGLRSLYQRKVLPLEEAYRFHEFHSPALEDADFENKPMILLVGQYSTGKTTFIRYLLEQDFPGMRIGPEPTTDSFIAVMYGETEGSTPGNALVVDPKKPFRKLSRFGNAFLNRFMCSQLPNQVLKSISIIDSPGILSGEKQRISRGYDFCQVLQWFAERVDRIILLFDAHKLDISDEFSEAIKAFRGQDDKIRVVLNKADQVDTQQLMRVYGALMWSLGKVINTPEVLRVYIGSFWAQPLQNTDNRRLFEAEAQDLFRDIQSLPQKAAVRKLNDLIKRARLAKVHAYIISYLKKEMPNMFGKENKKRELIYRLPEIYVQLQREYQISAGDFPEVKAMQEQLENYDFTKFHSLKPKLIEAVDNMLTNKISSLMGLISQEEMNMPTQMVQGGAFDGTTEGPFNQGYGEGAKEGADEEEWVVAKDKPVYDELFYTLSPINGKISGVNAKKEMVTSKLPNSVLGKIWKLADCDCDGMLDEEEFALAKHLIKIKLDGYELPNSLPPHLVPPSHRKSLPKAD", "values": [
      {"measurement": "DYT1/WT", "setting": "DYT-TOR1A MEF EVs [1]", "result": "DOWN"},
      {"measurement": "DYT1/DYT1 + RTV", "setting": "DYT-TOR1A MEF EVs [2]", "result": "DOWN"},
      {"measurement": "RTV Corrective Direction", "setting": "DYT-TOR1A MEF EVs [2]", "result": "Yes"},
      {"measurement": "Sal Corrective Direction", "setting": "DYT-TOR1A MEF EVs [2]", "result": "No"},
      {"measurement": "WT + ISRIB/WT", "setting": "WT MEF EVs", "result": "DOWN"}
    ]},
    {"molecule": "Tgfb2 (protein, UniProt P27090 303-414, looked up) Transforming growth factor …: ALDAAYCFRNVQDNCCLRPLYIDFKRDLGWKWIHEPKGYNANFCAGACPYLWSSDTQHTKVLSLYNTINPEASASPCCVSQDLEPLTILYYIGNTPKIEQLSNMIVKSCKCS", "values": [
      {"measurement": "DYT1/WT", "setting": "DYT-TOR1A MEF EVs [1]", "result": "DOWN"},
      {"measurement": "DYT1/DYT1 + Sal", "setting": "DYT-TOR1A MEF EVs [2]", "result": "DOWN"},
      {"measurement": "RTV Corrective Direction", "setting": "DYT-TOR1A MEF EVs [2]", "result": "No"},
      {"measurement": "Sal Corrective Direction", "setting": "DYT-TOR1A MEF EVs [2]", "result": "Yes"},
      {"measurement": "WT + ISRIB/WT", "setting": "WT MEF EVs", "result": "DOWN"}
    ]},
    {"molecule": "Sec31a (protein, UniProt Q3UPL0 1-1230, looked up) Protein transport protein …: MKLKEIDRTAMQAWSPAQNHPIYLATGTSAQQLDATFSTNASLEIFELDLSDPSLDMKSCATFSSSHRYHKLIWGPHKMDSKGDVSGVLIAGGENGNIILYDPSKIIAGDKEVVIAQKDKHTGPVRALDVNIFQTNLVASGANESEIYIWDLNNFATPMTPGAKTQPPEDISCIAWNRQVQHILASASPSGRATVWDLRKNEPIIKVSDHSNRMHCSGLAWHPDVATQMVLASEDDRLPVIQMWDLRFASSPLRVLENHARGILAVAWSMADPELLLSCGKDAKILCSNPNTGEVLYELPTNTQWCFDIQWCPRNPAVLSAASFDGRISVYSIMGGSIDGLRQKQVDKLSSSFGNLDPFGTGQPLPPLQIPQQSAQHSIVLPLKKPPKWIRRPVGASFSFGGKLVTFESVAVPLQQGAEQQRRQPVFISQVVTEKDFLNRSAQLQHAVQSQGFIGYCQKKIEASQTEFEKNVWSFLKVNFEEDSRGKYLELLGYRKEDLGQKIALALNKVDGPDVALKDSDQVAQSDGEESPAAEEQLLGERIKEEKQECDFLPSAGGTFNISVSGDIDGLITRALLTGNFESAVDLCLHDNRMADAIILAIAGGQELLAQTQKKYFAKSQSKITRLITAVVMKNWREIVESCDLKNWREALAAVLTYAKPDEFSALCDLLGTRLEREGDSLLRTQACLCYICAGNVERLVACWTKAQDGSSPLSLQDLIEKVVILRKAVQLTQALDTNTVGALLAEKMSQYASLLAAQGSIAAALAFLPDNTNQPNIVQLRDRLCKAQGKPVSGQESSQSPYERQPLSKGRPGPVAGHSQMPRVQTQQYYPHGENPPPPGFIMQGNVIPNPAAPLPTAPGHMPSQLPPYPQPQPYQPAQQYSFGTGGAAAYRPQQPVAPPASNAYPNTPYISPVASYSGQPQMYTAQQASSPTSSSAASFPPPSSGASFQHGGPGAPPSSSAYALPPGTTGTPPAASELPASQRTENQSFQDQASILEGPQNGWNDPPALNRVPKKKKMPENFMPPVPITSPIMNPSGDPQSQGLQQQPSTPGPLSSHASFPQQHLAGGQPFHGVQQPLAQTGMPPSFSKPNTEGAPGAPIGNTIQHVQALPTEKITKKPIPEEHLILKTTFEDLIQRCLSSATDPQTKRKLDDASKRLEFLYDKLREQTLSPTIINGLHSIARSIETRNYSEGLSVHTHIVSTSNFSETSAFMPVLKVVLSQASKLGV", "values": [
      {"measurement": "DYT1/WT", "setting": "DYT-TOR1A MEF EVs [1]", "result": "DOWN"},
      {"measurement": "DYT1/DYT1 + RTV", "setting": "DYT-TOR1A MEF EVs [2]", "result": "DOWN"},
      {"measurement": "DYT1/DYT1 + Sal", "setting": "DYT-TOR1A MEF EVs [2]", "result": "DOWN"},
      {"measurement": "RTV Corrective Direction", "setting": "DYT-TOR1A MEF EVs [2]", "result": "Yes"},
      {"measurement": "Sal Corrective Direction", "setting": "DYT-TOR1A MEF EVs [2]", "result": "Yes"},
      {"measurement": "WT + ISRIB/WT", "setting": "WT MEF EVs", "result": "DOWN"}
    ]}
  ]
}
